These results are taken from the supplement of paper PMC6411743.

The chains behind the UniProt entries cited, without tags or fusion partners. Where a name states a change or a piece, a line headed by the entry shows the natural chain unless it says otherwise.
UniProt Q13164: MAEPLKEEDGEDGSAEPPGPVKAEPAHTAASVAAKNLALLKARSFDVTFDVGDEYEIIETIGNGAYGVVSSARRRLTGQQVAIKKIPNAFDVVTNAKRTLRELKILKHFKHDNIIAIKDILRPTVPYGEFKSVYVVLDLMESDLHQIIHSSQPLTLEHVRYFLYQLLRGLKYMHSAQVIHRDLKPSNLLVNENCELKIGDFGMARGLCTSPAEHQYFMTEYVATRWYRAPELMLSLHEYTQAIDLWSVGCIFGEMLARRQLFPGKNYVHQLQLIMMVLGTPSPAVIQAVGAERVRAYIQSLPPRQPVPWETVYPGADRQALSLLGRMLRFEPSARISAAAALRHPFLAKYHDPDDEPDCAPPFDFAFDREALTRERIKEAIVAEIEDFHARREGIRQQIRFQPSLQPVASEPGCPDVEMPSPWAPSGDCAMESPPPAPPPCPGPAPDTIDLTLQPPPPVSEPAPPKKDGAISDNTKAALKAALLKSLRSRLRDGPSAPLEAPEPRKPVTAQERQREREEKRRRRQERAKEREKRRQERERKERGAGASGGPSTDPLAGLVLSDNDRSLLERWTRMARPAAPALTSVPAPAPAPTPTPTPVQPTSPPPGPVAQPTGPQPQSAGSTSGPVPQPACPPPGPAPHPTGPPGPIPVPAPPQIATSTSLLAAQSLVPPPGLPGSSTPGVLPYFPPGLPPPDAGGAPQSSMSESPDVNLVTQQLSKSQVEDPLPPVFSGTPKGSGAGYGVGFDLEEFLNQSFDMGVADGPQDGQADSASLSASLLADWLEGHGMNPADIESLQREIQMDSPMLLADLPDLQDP
UniProt Q13257, whole entry: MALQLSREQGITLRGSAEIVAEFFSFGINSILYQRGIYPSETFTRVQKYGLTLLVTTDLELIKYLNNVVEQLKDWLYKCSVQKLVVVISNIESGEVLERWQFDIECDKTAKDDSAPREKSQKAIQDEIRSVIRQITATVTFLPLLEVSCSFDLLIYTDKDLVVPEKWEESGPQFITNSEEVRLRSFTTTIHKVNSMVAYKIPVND
UniProt Q13526, whole entry: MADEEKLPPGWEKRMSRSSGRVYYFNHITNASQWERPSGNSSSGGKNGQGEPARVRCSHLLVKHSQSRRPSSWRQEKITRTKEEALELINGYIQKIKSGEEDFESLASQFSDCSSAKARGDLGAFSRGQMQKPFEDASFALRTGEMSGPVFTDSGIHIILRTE
UniProt Q13423: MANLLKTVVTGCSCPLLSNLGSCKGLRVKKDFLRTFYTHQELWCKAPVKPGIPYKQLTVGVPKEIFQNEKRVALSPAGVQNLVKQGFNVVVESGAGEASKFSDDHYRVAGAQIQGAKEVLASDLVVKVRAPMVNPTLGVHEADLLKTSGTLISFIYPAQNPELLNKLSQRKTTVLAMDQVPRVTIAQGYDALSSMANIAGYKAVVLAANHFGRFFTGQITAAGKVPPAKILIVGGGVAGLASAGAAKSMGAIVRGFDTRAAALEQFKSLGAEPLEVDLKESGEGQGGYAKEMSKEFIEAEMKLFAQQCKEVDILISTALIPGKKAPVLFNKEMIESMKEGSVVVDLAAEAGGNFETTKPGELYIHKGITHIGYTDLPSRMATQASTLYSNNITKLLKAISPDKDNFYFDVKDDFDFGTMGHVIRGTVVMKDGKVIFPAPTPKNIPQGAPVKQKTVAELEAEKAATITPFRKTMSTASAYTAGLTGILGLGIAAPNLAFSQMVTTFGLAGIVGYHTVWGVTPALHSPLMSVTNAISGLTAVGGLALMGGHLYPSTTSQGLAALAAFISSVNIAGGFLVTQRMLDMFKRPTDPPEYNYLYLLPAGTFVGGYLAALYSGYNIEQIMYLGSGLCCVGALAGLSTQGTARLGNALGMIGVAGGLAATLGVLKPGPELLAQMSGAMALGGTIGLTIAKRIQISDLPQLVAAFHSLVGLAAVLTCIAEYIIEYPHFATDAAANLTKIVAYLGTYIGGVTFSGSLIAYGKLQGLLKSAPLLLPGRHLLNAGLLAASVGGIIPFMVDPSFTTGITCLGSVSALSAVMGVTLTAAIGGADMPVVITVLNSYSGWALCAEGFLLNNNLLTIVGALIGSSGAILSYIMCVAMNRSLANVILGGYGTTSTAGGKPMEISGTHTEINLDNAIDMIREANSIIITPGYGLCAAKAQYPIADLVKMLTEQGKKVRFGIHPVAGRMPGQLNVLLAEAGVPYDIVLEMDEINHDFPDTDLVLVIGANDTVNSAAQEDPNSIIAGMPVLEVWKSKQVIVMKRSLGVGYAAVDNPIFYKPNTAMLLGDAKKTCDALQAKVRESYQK
UniProt Q14691: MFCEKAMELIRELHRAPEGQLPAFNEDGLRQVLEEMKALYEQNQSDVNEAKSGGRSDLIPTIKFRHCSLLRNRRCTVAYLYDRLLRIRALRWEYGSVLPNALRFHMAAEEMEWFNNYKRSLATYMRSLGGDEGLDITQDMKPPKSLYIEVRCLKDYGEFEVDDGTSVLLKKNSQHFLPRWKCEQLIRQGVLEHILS
UniProt Q13951, whole entry: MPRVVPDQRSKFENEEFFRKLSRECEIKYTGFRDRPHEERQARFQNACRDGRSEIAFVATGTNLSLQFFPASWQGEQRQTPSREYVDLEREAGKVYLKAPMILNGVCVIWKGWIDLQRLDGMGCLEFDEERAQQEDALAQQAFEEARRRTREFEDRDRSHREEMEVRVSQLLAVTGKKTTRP
UniProt Q13045: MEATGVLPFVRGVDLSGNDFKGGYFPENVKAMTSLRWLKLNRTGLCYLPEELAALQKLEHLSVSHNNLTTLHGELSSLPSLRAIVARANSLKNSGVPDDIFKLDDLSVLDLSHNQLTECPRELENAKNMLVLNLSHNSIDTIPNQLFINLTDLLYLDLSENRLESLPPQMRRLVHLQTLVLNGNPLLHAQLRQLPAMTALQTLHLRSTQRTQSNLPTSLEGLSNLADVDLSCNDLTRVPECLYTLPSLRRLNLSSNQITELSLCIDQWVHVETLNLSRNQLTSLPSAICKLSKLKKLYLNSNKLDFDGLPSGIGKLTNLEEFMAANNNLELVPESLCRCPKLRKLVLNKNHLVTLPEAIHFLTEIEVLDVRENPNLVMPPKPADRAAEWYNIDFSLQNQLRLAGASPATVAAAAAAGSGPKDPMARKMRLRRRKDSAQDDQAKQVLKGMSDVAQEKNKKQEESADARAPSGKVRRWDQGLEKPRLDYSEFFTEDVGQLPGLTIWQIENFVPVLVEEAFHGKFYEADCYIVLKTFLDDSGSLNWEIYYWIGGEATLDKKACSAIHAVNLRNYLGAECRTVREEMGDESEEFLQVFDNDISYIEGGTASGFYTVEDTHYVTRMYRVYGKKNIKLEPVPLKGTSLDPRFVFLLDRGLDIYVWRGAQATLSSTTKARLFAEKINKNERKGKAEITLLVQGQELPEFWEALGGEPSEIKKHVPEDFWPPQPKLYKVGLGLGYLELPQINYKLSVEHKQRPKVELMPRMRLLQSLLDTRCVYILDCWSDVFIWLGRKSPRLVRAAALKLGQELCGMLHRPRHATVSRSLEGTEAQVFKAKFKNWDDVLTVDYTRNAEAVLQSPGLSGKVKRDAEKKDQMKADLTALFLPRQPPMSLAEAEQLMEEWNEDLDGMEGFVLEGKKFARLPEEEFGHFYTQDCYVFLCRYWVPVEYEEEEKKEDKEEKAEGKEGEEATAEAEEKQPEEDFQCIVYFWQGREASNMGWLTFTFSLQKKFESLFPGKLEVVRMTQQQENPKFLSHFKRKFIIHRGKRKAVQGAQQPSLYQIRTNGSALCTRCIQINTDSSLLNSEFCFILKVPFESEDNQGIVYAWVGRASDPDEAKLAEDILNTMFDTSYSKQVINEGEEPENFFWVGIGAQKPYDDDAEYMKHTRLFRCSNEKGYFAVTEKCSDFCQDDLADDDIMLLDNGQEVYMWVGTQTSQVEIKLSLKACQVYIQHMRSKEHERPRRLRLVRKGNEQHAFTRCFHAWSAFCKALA
UniProt Q12893: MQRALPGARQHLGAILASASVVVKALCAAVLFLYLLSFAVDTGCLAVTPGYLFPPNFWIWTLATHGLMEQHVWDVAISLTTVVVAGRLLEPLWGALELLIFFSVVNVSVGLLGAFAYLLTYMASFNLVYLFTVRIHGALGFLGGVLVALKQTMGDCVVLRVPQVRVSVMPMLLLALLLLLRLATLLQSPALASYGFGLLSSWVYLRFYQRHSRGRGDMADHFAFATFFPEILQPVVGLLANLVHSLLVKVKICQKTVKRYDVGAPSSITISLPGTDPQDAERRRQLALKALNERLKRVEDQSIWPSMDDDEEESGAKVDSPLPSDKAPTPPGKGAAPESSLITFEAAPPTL
UniProt Q12772: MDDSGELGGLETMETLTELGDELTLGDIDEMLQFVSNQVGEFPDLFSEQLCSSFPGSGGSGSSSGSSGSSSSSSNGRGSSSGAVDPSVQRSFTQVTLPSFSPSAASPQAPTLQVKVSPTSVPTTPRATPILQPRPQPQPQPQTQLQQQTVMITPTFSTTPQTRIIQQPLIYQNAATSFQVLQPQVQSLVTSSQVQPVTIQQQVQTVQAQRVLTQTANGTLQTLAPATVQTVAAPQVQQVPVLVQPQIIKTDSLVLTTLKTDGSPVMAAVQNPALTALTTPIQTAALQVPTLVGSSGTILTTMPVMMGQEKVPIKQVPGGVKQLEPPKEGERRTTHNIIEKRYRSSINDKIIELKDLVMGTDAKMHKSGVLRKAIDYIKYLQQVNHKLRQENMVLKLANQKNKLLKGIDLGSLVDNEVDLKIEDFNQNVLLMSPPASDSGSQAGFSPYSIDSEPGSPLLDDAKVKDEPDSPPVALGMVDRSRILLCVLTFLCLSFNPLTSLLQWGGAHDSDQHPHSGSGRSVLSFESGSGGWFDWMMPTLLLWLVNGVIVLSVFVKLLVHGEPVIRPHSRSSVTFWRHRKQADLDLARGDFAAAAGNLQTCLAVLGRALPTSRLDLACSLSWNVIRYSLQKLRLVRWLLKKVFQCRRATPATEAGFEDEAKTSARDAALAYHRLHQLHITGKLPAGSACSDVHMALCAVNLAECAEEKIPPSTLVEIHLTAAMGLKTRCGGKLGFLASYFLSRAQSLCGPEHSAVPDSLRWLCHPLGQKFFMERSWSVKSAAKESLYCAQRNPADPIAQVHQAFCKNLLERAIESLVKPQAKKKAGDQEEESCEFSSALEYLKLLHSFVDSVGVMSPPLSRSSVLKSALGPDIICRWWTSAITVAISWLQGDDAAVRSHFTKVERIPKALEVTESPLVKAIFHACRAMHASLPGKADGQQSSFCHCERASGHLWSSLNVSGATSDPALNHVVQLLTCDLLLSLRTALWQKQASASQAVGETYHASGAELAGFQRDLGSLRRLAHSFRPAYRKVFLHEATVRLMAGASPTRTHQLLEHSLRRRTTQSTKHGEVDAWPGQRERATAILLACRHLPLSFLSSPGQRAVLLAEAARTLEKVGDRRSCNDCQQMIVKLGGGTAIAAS
UniProt Q13442: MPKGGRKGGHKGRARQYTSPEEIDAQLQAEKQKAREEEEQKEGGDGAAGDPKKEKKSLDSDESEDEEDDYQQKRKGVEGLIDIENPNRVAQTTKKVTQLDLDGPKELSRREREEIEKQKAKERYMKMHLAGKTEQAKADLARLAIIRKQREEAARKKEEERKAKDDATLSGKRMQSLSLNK
UniProt Q13825: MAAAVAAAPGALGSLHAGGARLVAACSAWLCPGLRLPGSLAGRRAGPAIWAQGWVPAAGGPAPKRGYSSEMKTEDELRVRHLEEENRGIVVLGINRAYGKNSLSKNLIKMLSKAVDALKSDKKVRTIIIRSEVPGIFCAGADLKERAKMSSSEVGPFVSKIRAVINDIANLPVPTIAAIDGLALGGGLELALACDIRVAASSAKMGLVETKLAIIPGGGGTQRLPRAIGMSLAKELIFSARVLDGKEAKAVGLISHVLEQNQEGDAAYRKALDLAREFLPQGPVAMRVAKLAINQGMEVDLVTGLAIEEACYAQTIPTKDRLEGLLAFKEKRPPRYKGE
UniProt Q13310, whole entry: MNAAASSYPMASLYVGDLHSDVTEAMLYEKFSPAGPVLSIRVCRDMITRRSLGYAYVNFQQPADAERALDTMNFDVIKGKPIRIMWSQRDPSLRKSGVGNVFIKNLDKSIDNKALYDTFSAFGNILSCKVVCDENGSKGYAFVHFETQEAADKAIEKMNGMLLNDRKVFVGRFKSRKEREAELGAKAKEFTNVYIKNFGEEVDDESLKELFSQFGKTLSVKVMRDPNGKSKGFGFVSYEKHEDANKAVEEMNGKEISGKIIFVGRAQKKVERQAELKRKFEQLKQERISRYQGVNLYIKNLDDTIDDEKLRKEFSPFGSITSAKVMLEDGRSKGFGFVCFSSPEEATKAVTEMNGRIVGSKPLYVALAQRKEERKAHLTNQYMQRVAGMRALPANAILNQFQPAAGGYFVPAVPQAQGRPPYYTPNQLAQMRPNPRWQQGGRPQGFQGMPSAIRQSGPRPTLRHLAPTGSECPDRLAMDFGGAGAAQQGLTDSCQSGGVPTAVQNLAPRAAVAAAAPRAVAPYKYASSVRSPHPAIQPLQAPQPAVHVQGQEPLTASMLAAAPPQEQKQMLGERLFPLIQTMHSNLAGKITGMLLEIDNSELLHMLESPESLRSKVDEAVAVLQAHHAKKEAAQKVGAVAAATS

± gives the standard deviation of the averaged measurements. This is a selection; strong and weak results do not stand in their true shares.

Compound in one experiment: Nc1ncnc2c1ncn2[C@@H]1O[C@H](COP(=O)(O)OP(=O)(O)NP(=O)(O)O)[C@@H](O)[C@H]1O [adenylyl imidodiphosphate]
Description: NP40-soluble protein abundance relative to vehicle (solubility fold change) (ratio); higher = more soluble protein in presence of AMP-PNP. The settings on record: concentration: 8mM. An outline of the steps: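 Eight concentrations, 0.1 to 10 mM, were tested on Jurkat crude lysate for 10 min at room temperature and then 3 min at 37 °C, in three independent experiments. The lysate was solubilised with 0.8% NP40 and benzonase, ultracentrifuged, and the supernatant TMT-labelled for LC-MS/MS. Each value is the fold change against the detergent-processed vehicle in its own replicate, from vsn-normalised intensities.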
UniProt Q13164: the NP40-soluble protein abundance came to 1 ± 0.016.

Regarding MAD2L1 (UniProt Q13257), the NP40-soluble protein abundance came to 1.05 ± 0.059.

With PIN1 (UniProt Q13526), the NP40-soluble protein abundance amounted to 1.06 ± 0.015.

Regarding NNT (UniProt Q13423), the NP40-soluble protein abundance worked out at 0.947 ± 0.033.

As for EXOSC2 (UniProt Q13868), the NP40-soluble protein abundance is 1.15 ± 0.074.

For the target GINS1 (UniProt Q14691), the NP40-soluble protein abundance turned out to be 1 ± 0.025.

Regarding UniProt Q08J23 and related entries, the NP40-soluble protein abundance amounted to 1.18 ± 0.022.

Turning to UniProt Q13951 and related entries, the NP40-soluble protein abundance is 1.01 ± 0.022.

With UniProt Q13303 and related entries, the NP40-soluble protein abundance is 1.06 ± 0.058.

With UniProt Q13045 and related entries, the NP40-soluble protein abundance was found to be 1 ± 0.013.

For “UniProt Q13428-3|Q13428-7|E7ETY2 and related entries”, the NP40-soluble protein abundance was found to be 1.22 ± 0.06.

As for TMEM115 (UniProt Q12893), the NP40-soluble protein abundance is 0.982 ± 0.04.

For UniProt Q14693 and related entries, the NP40-soluble protein abundance is 1.01 ± 0.04.

In the case of DAG1 (UniProt Q14118), the NP40-soluble protein abundance is 1.05 ± 0.027.

Take UniProt Q13029 and related entries: the NP40-soluble protein abundance is 1 ± 0.011.

As for SREBF2 (UniProt Q12772), the NP40-soluble protein abundance came out at 0.99925 ± 0.00021.

With UniProt Q15084 and related entries, the NP40-soluble protein abundance came to 0.92 ± 0.022.

Take UniProt Q13884 and related entries: the NP40-soluble protein abundance came out at 1.02 ± 0.023.

Turning to TFDP2 (UniProt Q14188), the NP40-soluble protein abundance was determined as 1.016 ± 0.01.

On to UniProt Q13308 and related entries, for which the NP40-soluble protein abundance amounted to 1.02 ± 0.015.

Turning to UniProt Q13459 and related entries, the NP40-soluble protein abundance was 1.02 ± 0.083.

On to BLMH (UniProt Q13867), for which the NP40-soluble protein abundance was found to be 0.978 ± 0.069.

Turning to PDAP1 (UniProt Q13442), the NP40-soluble protein abundance was found to be 1.24 ± 0.085.

With UniProt Q13740 and related entries, the NP40-soluble protein abundance is 1.01 ± 0.017.

Take PPP1R8 (UniProt Q12972): the NP40-soluble protein abundance was determined as 1.01 ± 0.041.

Regarding UniProt Q15046, the NP40-soluble protein abundance is 0.898 ± 0.097.

With BYSL (UniProt Q13895), the NP40-soluble protein abundance came out at 0.996 ± 0.011.

UniProt Q12769 and related entries: the NP40-soluble protein abundance came to 0.99281 ± 0.00096.

UniProt Q15067-2|Q15067: the NP40-soluble protein abundance is 1.09 ± 0.053.

For the target UniProt Q13825 and related entries, the NP40-soluble protein abundance is 1.04 ± 0.057.

For UniProt Q13310-3|Q13310, the NP40-soluble protein abundance was found to be 1.08 ± 0.055.

As for EIF2B1 (UniProt Q14232), the NP40-soluble protein abundance turned out to be 1.08 ± 0.061.

UniProt Q14865: the NP40-soluble protein abundance turned out to be 0.942 ± 0.041.

As for COTL1 (UniProt Q14019), the NP40-soluble protein abundance amounted to 0.965 ± 0.026.

For the target DDX10 (UniProt Q13206), the NP40-soluble protein abundance was determined as 0.962 ± 0.031.

UniProt Q13627 and related entries: the NP40-soluble protein abundance is 1.028 ± 0.0074.

The experiment is the same for the next values; noted with them: concentration: 10mM.
As for UniProt Q13164, the NP40-soluble protein abundance stood at 1.01 ± 0.045.

Turning to MAD2L1 (UniProt Q13257), the NP40-soluble protein abundance worked out at 0.996 ± 0.046.

PIN1 (UniProt Q13526): the NP40-soluble protein abundance is 1.08 ± 0.057.

Consider NNT (UniProt Q13423), for which the NP40-soluble protein abundance stood at 0.943 ± 0.025.

On to EXOSC2 (UniProt Q13868), for which the NP40-soluble protein abundance worked out at 1.15 ± 0.14.

Consider GINS1 (UniProt Q14691), for which the NP40-soluble protein abundance was determined as 0.983 ± 0.022.

Consider UniProt Q08J23 and related entries, for which the NP40-soluble protein abundance stood at 1.17 ± 0.043.

Regarding UniProt Q13951 and related entries, the NP40-soluble protein abundance came out at 1.06 ± 0.086.

With UniProt Q13303 and related entries, the NP40-soluble protein abundance is 1.02 ± 0.084.

For UniProt Q13045 and related entries, the NP40-soluble protein abundance turned out to be 0.964 ± 0.031.

As for “UniProt Q13428-3|Q13428-7|E7ETY2 and related entries”, the NP40-soluble protein abundance was found to be 1.28 ± 0.049.

For the target TMEM115 (UniProt Q12893), the NP40-soluble protein abundance worked out at 0.962 ± 0.049.

As for UniProt Q14693 and related entries, the NP40-soluble protein abundance is 1.01 ± 0.03.

As for DAG1 (UniProt Q14118), the NP40-soluble protein abundance stood at 1.05 ± 0.026.

Consider UniProt Q13029 and related entries, for which the NP40-soluble protein abundance is 1.018 ± 0.0089.

SREBF2 (UniProt Q12772): the NP40-soluble protein abundance amounted to 0.968 ± 0.025.

UniProt Q15084 and related entries: the NP40-soluble protein abundance is 0.94 ± 0.047.

As to UniProt Q13884 and related entries, the NP40-soluble protein abundance turned out to be 1.02 ± 0.026.

Consider TFDP2 (UniProt Q14188), for which the NP40-soluble protein abundance was determined as 1.02 ± 0.013.

In the case of UniProt Q13308 and related entries, the NP40-soluble protein abundance came to 1.07 ± 0.035.

As to UniProt Q13459 and related entries, the NP40-soluble protein abundance is 1.03 ± 0.12.

As for BLMH (UniProt Q13867), the NP40-soluble protein abundance is 0.911 ± 0.099.

For PDAP1 (UniProt Q13442), the NP40-soluble protein abundance amounted to 1.35 ± 0.12.

In the case of UniProt Q13740 and related entries, the NP40-soluble protein abundance was 1 ± 0.03.

In the case of PPP1R8 (UniProt Q12972), the NP40-soluble protein abundance is 0.995 ± 0.045.

On to UniProt Q15046, for which the NP40-soluble protein abundance turned out to be 0.87 ± 0.15.

For BYSL (UniProt Q13895), the NP40-soluble protein abundance was found to be 1.04 ± 0.056.

For UniProt Q12769 and related entries, the NP40-soluble protein abundance came out at 0.991 ± 0.019.

Take UniProt Q15067-2|Q15067: the NP40-soluble protein abundance worked out at 1.068 ± 0.0032.

As for UniProt Q13825 and related entries, the NP40-soluble protein abundance worked out at 1.06 ± 0.025.

As for UniProt Q13310-3|Q13310, the NP40-soluble protein abundance worked out at 1.09 ± 0.081.

For the target EIF2B1 (UniProt Q14232), the NP40-soluble protein abundance stood at 1.05 ± 0.049.

In the case of UniProt Q14865, the NP40-soluble protein abundance amounted to 0.958 ± 0.075.

COTL1 (UniProt Q14019): the NP40-soluble protein abundance was determined as 1.02 ± 0.06.

Regarding DDX10 (UniProt Q13206), the NP40-soluble protein abundance worked out at 0.979 ± 0.037.

Consider UniProt Q13627 and related entries, for which the NP40-soluble protein abundance turned out to be 1.03 ± 0.044.
